The list shows a part of the results.

This test addresses T1, OsSMF1 (Oryza sativa, UniProt Q6ZLB0 1-436).
T1 sequence: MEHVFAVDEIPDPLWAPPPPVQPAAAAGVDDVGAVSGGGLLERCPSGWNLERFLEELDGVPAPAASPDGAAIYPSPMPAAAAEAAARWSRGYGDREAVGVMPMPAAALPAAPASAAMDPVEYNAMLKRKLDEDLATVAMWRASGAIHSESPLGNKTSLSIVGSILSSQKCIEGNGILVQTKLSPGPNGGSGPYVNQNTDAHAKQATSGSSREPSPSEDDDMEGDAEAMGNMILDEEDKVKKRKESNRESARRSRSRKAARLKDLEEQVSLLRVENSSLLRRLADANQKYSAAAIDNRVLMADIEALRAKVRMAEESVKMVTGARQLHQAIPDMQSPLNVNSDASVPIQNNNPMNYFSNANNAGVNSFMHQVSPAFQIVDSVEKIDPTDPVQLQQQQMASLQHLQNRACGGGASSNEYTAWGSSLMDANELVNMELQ
As to the kind of experiment: protein-binding microarray (RPBM); PBS, 2% BSA, 51.3 ng/ul salmon testes DNA, 50 uM zinc acetate, 200 nM TF, 25 C, 1 h; high values mean tight binding. The note with it: protein: recombinant; tags: N-terminal polyhistidine and DsRed monomer fusion (pET32a); chain copies: 2; label: CyDye5-dUTP incorporated in the synthesized complementary strand; 3' TTTTT single-stranded linker to array surface; dsDNA, one strand shown. In a few lines: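 Per-feature fluorescence intensity (arbitrary units), read on an Axon 4000B scanner, is the binding signal. Transcription factors carrying an N-terminal polyhistidine tag and DsRed fusion were expressed in E. coli BL21-CodonPlus and purified on Ni–NTA. A custom Agilent array, made double-stranded by primer extension with Cy5-dUTP and blocked with 2% BSA, was incubated with 200 nM protein in PBS, 2% BSA, salmon testes DNA and 50 µM zinc acetate at 25 °C for 1 h and then washed.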
Regarding “GTACAGATGAAGAGATTTTAAGTACCGATGACCGTGACTGCGGAGTCACCTAGTGCAG”, the binding signal was 3250 fluorescence intensity (a.u.). Next, “GCGGAGCCGACGCGGCGGCGATGCTCGGCCGCGTGGCGGTCGGAGTCACCTAGTGCAG”: 3840 fluorescence intensity (a.u.); “GCCTTCCAAAACCGCGAAACTCCTCTCCTCGCCACGCGCGCGGAGTCACCTAGTGCAG”: 4390 fluorescence intensity (a.u.); “CCAGAGTACAGAGACGTTCCACCCACCCCGGGCCACCGAACGGAGTCACCTAGTGCAG”: 4150 fluorescence intensity (a.u.). Next, “TTCTTTGCAGAATCTGAGTCATCGCCACGTCAAACAACCTCGGAGTCACCTAGTGCAG”: 15100 fluorescence intensity (a.u.); “GTATAAATCCTTGCCATGTATTACATCGTGTTAATCTGGTCGGAGTCACCTAGTGCAG”: 3820 fluorescence intensity (a.u.). For “GGTTGGCTGCGTAGTGCGGTGGCGGACACTTGGTCCATCGCGGAGTCACCTAGTGCAG” the value was 3930 fluorescence intensity (a.u.); for “GGCGGCGGGGAGGTGGCGGCAAGGGAGGCGGCGGCGAGGGCGGAGTCACCTAGTGCAG”, 5050 fluorescence intensity (a.u.). For the sequence “TGGACTGCAGGCTGCAGAGCCCACCTCCTCCTGCATTGCACGGAGTCACCTAGTGCAG”, the binding signal was 7460 fluorescence intensity (a.u.). Next, “ACCACCACGTGTCGCCGACCGCCTGCCACGTGGGCAGGGCCGGAGTCACCTAGTGCAG”: 24800 fluorescence intensity (a.u.); “AATGAAGTTTGAGAGTGACATACATAGTCTTAATCTGGCTCGGAGTCACCTAGTGCAG”: 3280 fluorescence intensity (a.u.).

Take “GCCTCGAGATTCGTGCTCGCGGAACTTGCCGACGCGGCACCGGAGTCACCTAGTGCAG”: the binding signal was 5960 fluorescence intensity (a.u.). Next, “GAATCTTGTGTTGACACGGCCGCAGATCTCACACGCGGTACGGAGTCACCTAGTGCAG”: 5410 fluorescence intensity (a.u.); “GGGGCTCACGCTGACTCCGCGTTATTGACTCGGGTCAAATCGGAGTCACCTAGTGCAG”: 4270 fluorescence intensity (a.u.). For “TGATGTTCTTACTGGTGGTGCTGATGACAATACTGAACAGCGGAGTCACCTAGTGCAG” the value was 3840 fluorescence intensity (a.u.); for “ACACGCGCAGCTCTGCCAGCGCAGCTCCCTCAGCACCTCTCGGAGTCACCTAGTGCAG”, 3450 fluorescence intensity (a.u.); for “ACTACCCACTCATTGCCACGTGGGCGCCCGCCTCTGGGCCCGGAGTCACCTAGTGCAG”, 31400 fluorescence intensity (a.u.).

On to “CTGATCTTTGCTTAGTGACGGGTGCCCTGTCCGAAAGAGACGGAGTCACCTAGTGCAG”, for which the binding signal was 3250 fluorescence intensity (a.u.). On to “TCTACAGTCACTCGCTTAGCCATGACATAAGCATCTTTCTCGGAGTCACCTAGTGCAG”, for which the binding signal was 4890 fluorescence intensity (a.u.).

Regarding “CTAGGTCAACACCGCCATGTCAGCGCCACGTCAGCGAAACCGGAGTCACCTAGTGCAG”, the binding signal was 28700 fluorescence intensity (a.u.). For “TGCTTCACCTTCACATATTGCACAAATTTAACCTCAGCTTCGGAGTCACCTAGTGCAG” the value was 3900 fluorescence intensity (a.u.); for “TGTCTTTTCCTTGTCTCTCCTGATGTGTAAAACACAAGGCCGGAGTCACCTAGTGCAG”, 19500 fluorescence intensity (a.u.). Take “CGCGCATTCCGGTGAACAAGTGCGTGGCGTGGCGATCGGCCGGAGTCACCTAGTGCAG”: the binding signal is 4670 fluorescence intensity (a.u.). For “CTCCGCCGCCTTCCCCGCCGCCGACCACGTCGACGCCGTCCGGAGTCACCTAGTGCAG” the value was 7790 fluorescence intensity (a.u.). For “GTGTGTGCTGTCGTTTTCTTACGTGGAGTCACGTGACTGGCGGAGTCACCTAGTGCAG” the value was 8350 fluorescence intensity (a.u.); for “CTTCCAGTCCTGCCAACAACAGGACTGCCACCACACAGCACGGAGTCACCTAGTGCAG”, 4840 fluorescence intensity (a.u.); for “TTGTGAATAATTGCTCTTGTGCTAAGAAAATTCCAACTTACGGAGTCACCTAGTGCAG”, 26400 fluorescence intensity (a.u.). Next, “CGATTCTCTTCGAGCTCTTGAATGGCTATCCACCATTCCGCGGAGTCACCTAGTGCAG”: 3320 fluorescence intensity (a.u.); “ATGTCTCTGCATCCGGGTAGTGGGTACAAATAAGCTGAGGCGGAGTCACCTAGTGCAG”: 3930 fluorescence intensity (a.u.); “GCTGATTTTCAAGGCGGGGAGAATGTTATGTAATTGGGTCCGGAGTCACCTAGTGCAG”: 3290 fluorescence intensity (a.u.). For the sequence “GACCTGCAAACACAGCGCACGCACGCGCAAGCACACACATCGGAGTCACCTAGTGCAG”, the binding signal was 3230 fluorescence intensity (a.u.).

As to “TGCATGTCCTCCGTCTGATGACGTTATTCCTGAGTACTCACGGAGTCACCTAGTGCAG”, the binding signal is 5560 fluorescence intensity (a.u.). For “TGGAGGTCGAACCAAACGCGGTGATCTGGAGCACGCTGCTCGGAGTCACCTAGTGCAG” the value was 3790 fluorescence intensity (a.u.); for “GCACTGGTGGTCAAACAGGAGGTGTAAATGCAACGTCAGCCGGAGTCACCTAGTGCAG”, 4540 fluorescence intensity (a.u.); for “TCAAAAGGAATGTTTCTATAGTGTACCCATCCAGATTTTACGGAGTCACCTAGTGCAG”, 4430 fluorescence intensity (a.u.).

As to “TTAATTTTAGAAATATATGTATAACTACTAAATTAGTTAACGGAGTCACCTAGTGCAG”, the binding signal is 23800 fluorescence intensity (a.u.). “CCCACTGTATCCACTACCATCTCCCGTGTCCTCCTCCCACCGGAGTCACCTAGTGCAG”: the binding signal was 3480 fluorescence intensity (a.u.). For “GCGTCGTCGGGATCGTGTACTCGTCGTAGCCACCACACCGCGGAGTCACCTAGTGCAG”, the binding signal is 4580 fluorescence intensity (a.u.). As to “GTGCCATTTTAGGGTGTTGATGTGGATCAACAAGAGATGACGGAGTCACCTAGTGCAG”, the binding signal was 3260 fluorescence intensity (a.u.). For “CAAGCTAACCACGCATGGCCCACCTGTCATTCTGAGACAGCGGAGTCACCTAGTGCAG” the value was 3950 fluorescence intensity (a.u.); for “TCTCCTCTCCGACACGACAGCGACTTCTCCCTCCCGCCACCGGAGTCACCTAGTGCAG”, 5440 fluorescence intensity (a.u.). Next, “TTCGCGTCCTCCGTGTCGAGCAGGTCCTCCACATTAGAGGCGGAGTCACCTAGTGCAG”: 3410 fluorescence intensity (a.u.); “TTGCAATTGATCTAGCCGCTGAGGAGGACGGTAAAGTAGACGGAGTCACCTAGTGCAG”: 14700 fluorescence intensity (a.u.). For “CGGCAAGACGGCGGCGCGTGGCGGCGGCGAGACCCATCGACGGAGTCACCTAGTGCAG” the value was 3190 fluorescence intensity (a.u.); for “CTCGGATGAAGAACCTATGAGATGTCATAATATGGTTTTCCGGAGTCACCTAGTGCAG”, 4110 fluorescence intensity (a.u.); for “CGAGGGATTCGAGTGACGACACGCGCGCAGGGGTACGTGGCGGAGTCACCTAGTGCAG”, 7480 fluorescence intensity (a.u.).

Turning to “CTCAACTGTGCTGACATAAAACAACTCATCACATTTTAGGCGGAGTCACCTAGTGCAG”, the binding signal is 4100 fluorescence intensity (a.u.). For “GGTCGGTCCAGCTATAACCTGTGTCATCTTACACACCAGACGGAGTCACCTAGTGCAG” the value was 3590 fluorescence intensity (a.u.); for “CTCCTAGCAGCAACAGGGCCACGTTTGCTCTGCGAACAGGCGGAGTCACCTAGTGCAG”, 4590 fluorescence intensity (a.u.).

Regarding “AGCTTTTAGCCGAGGTGGATGCATAGGCCATGGCACCCTACGGAGTCACCTAGTGCAG”, the binding signal was 3510 fluorescence intensity (a.u.). On to “AGTGCTTTACTCTGCTGATTCATTGTTAAAATTGCCCCTACGGAGTCACCTAGTGCAG”, for which the binding signal is 4980 fluorescence intensity (a.u.). Next, “TCTCAACACGTACCCTCTCCTCCATCCGACGGTGGAGACGCGGAGTCACCTAGTGCAG”: 4400 fluorescence intensity (a.u.). For “TTTAATTCAAATGCCACCTAAGCACCACGTCAGCGAAACCCGGAGTCACCTAGTGCAG” the value was 42600 fluorescence intensity (a.u.); for “GGACACGACGACGCAACGGGGTCGCATCTCCCTGATTTGGCGGAGTCACCTAGTGCAG”, 4350 fluorescence intensity (a.u.).

Values taken from article PMC7819943, “Rice protein-binding microarrays: a tool to detect cis-acting elements near promoter regions in rice”.
